According to doi:10.1101/2022.07.12.499798:
Results are given in words; binding and its absence hold for the method and conditions named. For some of these results: Binding seen in cells or lysates may run through a third protein. Some binding calls cover weakened binding; strength is not graded here.

By UniProt entry, the sequences of proteins in these tests, tags left out.
UniProt P29619: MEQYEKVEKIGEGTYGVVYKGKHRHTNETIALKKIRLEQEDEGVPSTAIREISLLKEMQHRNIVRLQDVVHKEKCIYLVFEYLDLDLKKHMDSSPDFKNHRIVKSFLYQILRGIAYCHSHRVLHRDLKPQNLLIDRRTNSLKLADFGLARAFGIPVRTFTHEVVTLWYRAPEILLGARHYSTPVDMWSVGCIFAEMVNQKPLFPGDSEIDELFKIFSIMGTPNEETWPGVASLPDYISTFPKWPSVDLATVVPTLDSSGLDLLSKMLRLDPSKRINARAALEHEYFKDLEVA
UniProt Q336M2: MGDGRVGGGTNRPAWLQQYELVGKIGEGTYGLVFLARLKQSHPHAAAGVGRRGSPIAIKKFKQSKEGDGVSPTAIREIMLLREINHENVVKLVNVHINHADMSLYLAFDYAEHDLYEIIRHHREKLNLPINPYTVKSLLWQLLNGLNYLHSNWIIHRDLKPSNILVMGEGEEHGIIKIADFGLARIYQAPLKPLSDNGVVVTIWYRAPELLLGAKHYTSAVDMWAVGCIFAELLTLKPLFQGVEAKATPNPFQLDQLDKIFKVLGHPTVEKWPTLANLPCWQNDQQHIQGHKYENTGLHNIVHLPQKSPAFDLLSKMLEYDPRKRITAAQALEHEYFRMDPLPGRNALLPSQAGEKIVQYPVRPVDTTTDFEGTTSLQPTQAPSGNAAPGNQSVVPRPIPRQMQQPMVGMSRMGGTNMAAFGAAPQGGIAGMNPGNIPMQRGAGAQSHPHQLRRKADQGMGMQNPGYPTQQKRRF
UniProt Q8L4P8: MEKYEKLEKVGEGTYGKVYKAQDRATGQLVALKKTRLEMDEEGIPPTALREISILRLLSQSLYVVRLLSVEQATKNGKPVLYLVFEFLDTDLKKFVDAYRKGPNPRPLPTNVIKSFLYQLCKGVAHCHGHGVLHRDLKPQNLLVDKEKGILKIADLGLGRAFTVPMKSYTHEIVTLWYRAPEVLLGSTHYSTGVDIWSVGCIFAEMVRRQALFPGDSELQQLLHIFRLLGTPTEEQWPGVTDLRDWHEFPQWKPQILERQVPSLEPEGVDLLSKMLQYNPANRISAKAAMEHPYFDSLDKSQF
UniProt Q6Z6G5: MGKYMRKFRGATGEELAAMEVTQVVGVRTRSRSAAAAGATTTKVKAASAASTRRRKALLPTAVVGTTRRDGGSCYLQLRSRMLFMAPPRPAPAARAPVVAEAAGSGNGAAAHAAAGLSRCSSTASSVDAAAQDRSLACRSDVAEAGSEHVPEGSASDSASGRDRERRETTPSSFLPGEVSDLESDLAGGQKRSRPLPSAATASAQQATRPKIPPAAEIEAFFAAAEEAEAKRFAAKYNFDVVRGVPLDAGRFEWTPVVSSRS
UniProt P29618: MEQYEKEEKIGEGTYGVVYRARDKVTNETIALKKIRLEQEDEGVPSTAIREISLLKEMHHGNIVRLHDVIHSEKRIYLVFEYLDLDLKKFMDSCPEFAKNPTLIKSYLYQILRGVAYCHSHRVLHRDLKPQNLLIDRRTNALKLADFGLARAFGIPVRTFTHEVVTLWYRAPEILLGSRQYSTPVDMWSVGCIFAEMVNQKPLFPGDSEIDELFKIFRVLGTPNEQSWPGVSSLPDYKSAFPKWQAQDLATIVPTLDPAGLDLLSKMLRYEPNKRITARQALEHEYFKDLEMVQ
UniProt Q2QQS5: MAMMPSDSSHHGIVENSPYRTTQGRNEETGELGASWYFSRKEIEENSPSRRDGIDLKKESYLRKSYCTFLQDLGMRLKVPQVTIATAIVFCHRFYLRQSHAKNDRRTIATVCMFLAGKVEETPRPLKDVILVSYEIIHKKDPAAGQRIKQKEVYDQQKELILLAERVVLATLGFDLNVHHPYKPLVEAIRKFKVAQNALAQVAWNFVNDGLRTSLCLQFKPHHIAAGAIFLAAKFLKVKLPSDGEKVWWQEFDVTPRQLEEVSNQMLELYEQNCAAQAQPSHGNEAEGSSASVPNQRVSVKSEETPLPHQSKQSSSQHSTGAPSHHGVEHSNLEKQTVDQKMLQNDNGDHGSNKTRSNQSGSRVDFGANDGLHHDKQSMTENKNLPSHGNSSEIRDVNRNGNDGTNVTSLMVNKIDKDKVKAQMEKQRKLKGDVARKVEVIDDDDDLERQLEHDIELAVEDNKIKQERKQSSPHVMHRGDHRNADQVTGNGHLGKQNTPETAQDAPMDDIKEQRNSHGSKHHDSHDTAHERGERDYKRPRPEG
UniProt Q75I54: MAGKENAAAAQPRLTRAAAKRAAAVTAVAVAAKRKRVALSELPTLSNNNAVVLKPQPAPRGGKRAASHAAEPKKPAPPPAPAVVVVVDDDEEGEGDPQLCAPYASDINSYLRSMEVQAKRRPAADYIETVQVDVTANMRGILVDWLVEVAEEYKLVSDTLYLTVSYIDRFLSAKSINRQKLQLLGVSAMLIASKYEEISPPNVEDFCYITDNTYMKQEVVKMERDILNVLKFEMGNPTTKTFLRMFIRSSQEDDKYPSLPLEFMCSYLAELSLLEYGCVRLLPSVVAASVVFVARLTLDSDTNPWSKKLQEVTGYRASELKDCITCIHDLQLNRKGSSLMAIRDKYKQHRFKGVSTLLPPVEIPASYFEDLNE
UniProt Q0JIF2: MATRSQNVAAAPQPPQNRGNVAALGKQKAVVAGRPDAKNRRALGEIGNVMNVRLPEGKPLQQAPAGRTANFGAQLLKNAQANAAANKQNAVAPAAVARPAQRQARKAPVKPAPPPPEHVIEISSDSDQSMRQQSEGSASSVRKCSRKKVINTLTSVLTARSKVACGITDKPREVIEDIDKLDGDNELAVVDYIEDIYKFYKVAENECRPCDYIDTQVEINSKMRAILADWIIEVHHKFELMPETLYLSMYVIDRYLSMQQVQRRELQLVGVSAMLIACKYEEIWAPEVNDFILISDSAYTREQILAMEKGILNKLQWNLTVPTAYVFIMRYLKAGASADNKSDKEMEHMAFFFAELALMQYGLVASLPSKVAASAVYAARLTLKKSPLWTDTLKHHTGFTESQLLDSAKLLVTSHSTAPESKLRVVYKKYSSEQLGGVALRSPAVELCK
UniProt Q0D9C7: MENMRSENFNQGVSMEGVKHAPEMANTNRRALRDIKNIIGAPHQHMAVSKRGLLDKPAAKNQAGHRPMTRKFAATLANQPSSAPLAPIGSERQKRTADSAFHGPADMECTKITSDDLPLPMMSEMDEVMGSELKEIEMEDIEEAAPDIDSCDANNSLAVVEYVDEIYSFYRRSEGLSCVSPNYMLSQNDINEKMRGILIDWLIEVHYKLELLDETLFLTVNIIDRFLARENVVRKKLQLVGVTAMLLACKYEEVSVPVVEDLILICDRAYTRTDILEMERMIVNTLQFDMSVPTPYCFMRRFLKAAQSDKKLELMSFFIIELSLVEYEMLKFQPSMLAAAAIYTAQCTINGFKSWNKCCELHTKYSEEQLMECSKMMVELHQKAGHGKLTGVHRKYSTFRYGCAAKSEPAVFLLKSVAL

Tests used:
[1] = target: T1, KRP4-nEYFP (rice (Oryza sativa)) (UniProt Q7XDH8); test: split reporter
T1 sequence: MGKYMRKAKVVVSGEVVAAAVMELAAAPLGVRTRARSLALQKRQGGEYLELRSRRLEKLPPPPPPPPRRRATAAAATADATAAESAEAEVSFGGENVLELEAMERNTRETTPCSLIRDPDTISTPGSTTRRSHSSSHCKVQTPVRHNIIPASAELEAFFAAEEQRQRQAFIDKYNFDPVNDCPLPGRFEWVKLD

[2] = target: T2, KRP5-nEYFP (rice (Oryza sativa)) (UniProt Q283L0); test: split reporter
T2 sequence: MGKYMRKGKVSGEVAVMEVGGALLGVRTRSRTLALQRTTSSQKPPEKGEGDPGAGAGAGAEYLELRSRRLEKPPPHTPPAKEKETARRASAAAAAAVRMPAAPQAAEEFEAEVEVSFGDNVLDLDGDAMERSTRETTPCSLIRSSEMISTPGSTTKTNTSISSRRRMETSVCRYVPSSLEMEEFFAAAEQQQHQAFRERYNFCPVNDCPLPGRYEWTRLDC

[3] = target: CDKA2;1, yeast two-hybrid construct (rice (Oryza sativa)) (UniProt P29619); test: two-hybrid
[4] = target: CDKE1, yeast two-hybrid construct (rice (Oryza sativa)) (UniProt Q336M2); test: two-hybrid
[5] = target: CDKB1;1, yeast construct (rice (Oryza sativa)) (UniProt Q8L4P8); test: two-hybrid
[6] = target: KRP1, yeast two-hybrid bait (rice (Oryza sativa)) (UniProt Q6Z6G5); test: two-hybrid
[7] = target: T3, KRP4 (Kip-Related Protein 4), yeast construct (rice (Oryza sativa)) (UniProt Q7XDH8); test: two-hybrid
T3 sequence: T1 sequence

[8] = target: CDKA1;1, yeast two-hybrid construct (rice (Oryza sativa)) (UniProt P29618); test: two-hybrid
[9] = target: T4, KRP5 (Kip-Related Protein 5), yeast construct (rice (Oryza sativa)) (UniProt Q283L0); test: two-hybrid
T4 sequence: T2 sequence

[10] = target: T3, KRP4 (Kip-Related Protein 4), yeast construct (rice (Oryza sativa)); test: co-IP
[11] = target: T4, KRP5 (Kip-Related Protein 5), yeast construct (rice (Oryza sativa)); test: co-IP
[12] = target: KRP4m, C-terminally truncated KRP4 (rice (Oryza sativa)) (UniProt Q7XDH8); test: two-hybrid
[13] = target: KRP5m, C-terminally truncated KRP5 (rice (Oryza sativa)) (UniProt Q283L0); test: two-hybrid
[14] = target: T5, CDKB2;1, yeast construct (rice (Oryza sativa)) (UniProt Q0J4I1); test: two-hybrid
T5 sequence: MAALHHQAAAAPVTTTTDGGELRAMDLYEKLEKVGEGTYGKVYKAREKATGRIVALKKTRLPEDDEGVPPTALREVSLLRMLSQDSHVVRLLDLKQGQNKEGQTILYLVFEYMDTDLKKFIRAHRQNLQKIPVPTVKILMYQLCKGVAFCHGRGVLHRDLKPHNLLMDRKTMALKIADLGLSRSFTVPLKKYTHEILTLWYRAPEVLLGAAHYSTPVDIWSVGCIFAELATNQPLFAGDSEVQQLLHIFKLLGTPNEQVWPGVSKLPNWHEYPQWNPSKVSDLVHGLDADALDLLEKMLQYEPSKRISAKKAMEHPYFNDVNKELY

Substance	binding [4]	binding [5]	binding [7]	binding [8]	binding [9]	binding [12]	binding [13]	binding [14]	also measured
CDKB1-cEYFP (from UniProt Q8L4P8 1-303) (enzyme)									binding [1]: binds; binding [2]: binds
CYCT1;4, yeast two-hybrid prey (from UniProt Q2QQS5 1-543)	no binding	no binding	no binding	no binding	binds weakly				binding [3]: binds; binding [6]: no binding
CDKB1;1, yeast construct (from UniProt Q8L4P8 1-303) (enzyme)			binds		binds	no binding	no binding		binding [10]: binds; binding [11]: binds
CDKA1;1, yeast two-hybrid construct (from UniProt P29618 1-294) (enzyme)			binds		binds	no binding	no binding		
CYCA3;1, yeast two-hybrid prey (from UniProt Q75I54 1-373)	no binding	no binding		no binding				binds	
CYCB1;1, yeast two-hybrid prey (from UniProt Q0JIF2 1-449)	no binding	no binding		no binding				binds	
CDKE1, yeast two-hybrid construct (from UniProt Q336M2 1-475) (enzyme)			no binding		binds	no binding	no binding		
CYCB2;2, yeast two-hybrid prey (from UniProt Q0D9C7 1-419)	no binding	no binding		no binding				binds	binding [3]: binds
CDKA2;1, yeast two-hybrid construct (from UniProt P29619 1-292) (enzyme)			binds		binds	no binding	no binding		
